Experimental data taken from patent publication US9833466B2, “Treatment of leukemia with histone deacetylase inhibitors” (Acetylon Pharmaceuticals Inc., priority 2014, dated 2017).
For some of these results: At least one read-out could not be matched to a standard name with certainty. For some of these results: At least one compound was matched to its structure with a doubt left.

Assays:
AML1/ETO fusion protein = conditions: Kasumi-1; reported; cited from earlier work
[1] = system: bone marrow samples derived from AML patients; experiment: Primary AML sample colony formation assay; format: cell-based, human
Description: (A) 6 bone marrow samples derived from AML patients were cultured in methylcellulose-based medium and treated with increasing concentrations of Compound A, Compound J and azacitidine for 14 days when the colonies reach reasonable size. IC50 values for each drug are plotted. […] IC50 values were plotted for each patient sample.

SMILES: Cc1[nH]c2ccccc2c1CCNCc1ccc(/C=C/C(=O)NO)cc1 [panobinostat]
- loss of AML1/ETO fusion protein (AML1/ETO fusion protein): able to cause its loss

SMILES: O=C(CCCCCCNC(=O)c1cnc(N(c2ccccc2)c2ccccc2)nc1)NO [Compound A, 2-(diphenylamino)-N-(7-(hydroxyamino)-7-oxoheptyl)pyrimidine-5-carboxamide]
- effect on azacitidine IC50, colony formation ([1]; sample 4031113SH, Compound J at 1 or 3 uM, Compound A at 1, 3 or 10 uM added to azacitidine): decreased azacitidine IC50 value
- effect on azacitidine IC50, colony formation ([1]; sample 184090514, Compound J at 3 uM, Compound A at 10 uM): significantly reduced azacitidine IC50 value
- effect on azacitidine IC50, colony formation ([1]; sample VMBM0007, Compound J at 1 or 3 uM, Compound A at 1, 3 or 10 uM added to azacitidine): decreased azacitidine IC50 value
